Experimental data from PubChem BioAssay AID540276 (National Center for Advancing Translational Sciences (NCATS), 2011).
The campaign covered roughly 300,000 compounds. About 5,400 (1.8%) were called active. This list was built around the results that the source calls inconclusive (neither active nor inactive); the mix of calls is not that of the screen. Calls follow the shape of the full dose curve; tested in HEK293 cells. Potencies beside an inconclusive call are fits to weak or partial responses and may not hold up.

Test: qHTS for inhibitors of binding or entry into cells for Marburg Virus
Settings: Marburg virus pseudotyped entry inhibition, cell reporter; series mostly up to 37.8 µM
Potency is read from the fitted curve at half-maximal effect.

Row | Compound | Potency
1 | O=C(Nc1nc2ccc(Cl)cc2s1)C1CCCO1 (centres undefined) | inconclusive: 1.12 µM [activator, single point]
2 | CCCS(=O)(=O)c1nc(S(=O)(=O)c2ccc(C)cc2)c(NC(C)c2ccccc2)s1 (centres undefined) | inactive
3 | CCn1cc(C(=O)NCc2ccco2)c2cc(OC)c(OC)cc2c1=O | inactive
4 | COc1ccc(Cl)cc1S(=O)(=O)N1CCCC1=O | inconclusive: 3.55 µM [activator, full curve]
5 | O=c1[nH][nH]c(C(F)(F)F)c1C=Nc1ccccc1 | inactive
6 | Nc1nc(SCC(=O)Nc2ccc(Cl)cc2C(F)(F)F)n[nH]1 | inconclusive: 0.447 µM [activator, full curve, poor fit]
7 | C=CCNC(=O)C1CCN(c2cc(C)nc(-c3ccccc3)n2)CC1 | inactive
8 | Cn1c(SCc2n[nH]c(=S)o2)nnc1-c1ccccc1 | inconclusive: 0.259 µM [activator, single point]
9 | Fc1ccc(NC(=S)N2CCN(c3ccccn3)CC2)cc1Cl | inconclusive: 3.55 µM [inhibitor, partial curve, poor fit]
10 | CC1(C)Cc2cccc(OCC(O)CNCc3ccccn3)c2O1 (centres undefined) | inconclusive: 35.5 µM [inhibitor, single point]
11 | Cc1ccccc1CC1(CO)CCCN(Cc2c(C)nn(C)c2Cl)C1 (centres undefined) | inconclusive: 15.8 µM [inhibitor, partial curve, poor fit]
12 | Cc1ccc(C(=O)Nc2ccccc2[N+](=O)[O-])cc1S(=O)(=O)N1CCOCC1 | inactive
13 | COc1cc(/C=C(\C#N)C(=O)NCC2CCCO2)ccc1OCC(N)=O (centres undefined) | inactive
14 | c1ccc2c(c1)nc1n2CCN1CCNC1CCCCC1 | inconclusive: 22.4 µM [inhibitor, single point]
15 | CC(C)N1CCC(N2CCN(Cc3ccc(Oc4ncccn4)cc3)CC2CCO)CC1 (centres undefined) | inconclusive: 35.5 µM [inhibitor, single point]
16 | CCC(C(=O)Nc1cc(OC)ccc1OC)n1nc(-c2ccccc2)c2c(c1=O)CCCC2 (centres undefined) | inconclusive: 35.5 µM [inhibitor, partial curve, poor fit]
17 | C/C(=N\NC(=O)c1ccoc1C)c1ccccc1O | inconclusive: 31.6 µM [inhibitor, single point]
18 | CCNC(=S)NCc1ccc2c(c1)OCO2 | inconclusive: 0.224 µM [activator, full curve, poor fit]
19 | COc1ccc(NS(=O)(=O)c2ccc(N3CCOCC3)c(NC(=O)c3ccccc3Br)c2)cc1 | active: 2.51 µM
20 | NCC(O)CN1CCN(Cc2ccccc2)CC1 (centres undefined) | inconclusive: 10 µM [inhibitor, partial curve, poor fit]
21 | Cc1cc(N2CCN(c3ncccn3)CC2)nc2c(C)cccc12 | inconclusive: 25.1 µM [inhibitor, single point]
22 | CCN1CNC(=S)N(c2cccc(C)c2)C1 | inconclusive: 0.282 µM [inhibitor, partial curve, poor fit]

Row | Compound | Potency
23 | CCC(C)NC(=O)c1cc(-c2cccs2)nc2ccccc12 (centres undefined) | inconclusive: 10 µM [inhibitor, partial curve, poor fit]
24 | Cc1nn(Cc2cccc(C(=O)NC(C)c3ccc(C(C)(C)C)cc3)c2)c(C)c1[N+](=O)[O-] (centres undefined) | inconclusive: 29.1 µM [inhibitor, single point]
25 | CCN(CC1CCCO1)C(=O)c1cc(COc2ccccc2SC)on1 (centres undefined) | inactive
26 | Cc1cc(S(=O)(=O)Nc2ccc(C(=O)NCC(c3ccco3)N3CCCCC3)cc2)ccc1F (centres undefined) | inactive
27 | Cn1c2ccccc2c2c(C(=O)N3CCN(c4cccc(C(F)(F)F)c4)CC3)cn(C3CCCCC3)c(=O)c21 | inconclusive: 11.2 µM [inhibitor, partial curve, poor fit]
28 | Cc1c(C(=O)NC2CCCc3ccccc32)oc2ccc(S(=O)(=O)N3CCCC3)cc12 (centres undefined) | inconclusive: 32.6 µM [inhibitor, partial curve, poor fit]
29 | Clc1ccc(OCCn2c(-c3ccco3)nc3ccccc32)cc1 | inactive
30 | CC(C)C(=O)NC(=S)N1CCc2ccccc21 | inconclusive: 16.4 µM [activator, partial curve, poor fit]
31 | N#Cc1c(NC(=O)c2ccccc2)sc2c1CCC2 | inconclusive: 7.08 µM [inhibitor, full curve, poor fit]
32 | Cc1cccc(Cn2nnc3c2C(=O)c2ccccc2C3=O)c1 | inconclusive: 0.231 µM [inhibitor, full curve, poor fit]
33 | Cn1c(=O)c2[nH]c(-c3ccccc3)c(O)c2n(C)c1=O | inactive
34 | Cc1nc2cc(NS(=O)(=O)c3ccc(Br)cc3)ccc2n1C | inconclusive: 11.2 µM [inhibitor, single point]
35 | CSc1ccccc1N=CC1=C(O)CC(C)(C)CC1=O | inactive
36 | Cc1cccc(Cn2nnc3c(=O)[nH]c(C4CCCN(C(=O)c5ccc(C(C)(C)C)cc5)C4)nc32)c1 (centres undefined) | inconclusive: 11.2 µM [inhibitor, partial curve, poor fit]
37 | CCCN1CCCc2cc(CN(CCCN3CCOCC3)C(=O)Nc3ccc(OCC)cc3)ccc21 | inconclusive: 18.3 µM [inhibitor, partial curve, poor fit]
38 | COc1ccc(N(CC(=O)N/N=C/c2ccc(F)cc2)S(=O)(=O)c2ccccc2)cc1 | inconclusive: 35.5 µM [inhibitor, partial curve, poor fit]
39 | CCN1CCCC1CN(Cc1cc2cc(C)cc(C)c2[nH]c1=O)C(=O)Nc1ccccc1OC (centres undefined) | inconclusive: 15.8 µM [inhibitor, single point]
40 | COc1ccc(-n2c(Cc3ccccc3)nnc2SCc2ccc([N+](=O)[O-])cc2)cc1 | inconclusive: 18.4 µM [inhibitor, single point]
41 | COC(=O)C1=C(O)CSC1=Nc1ccccc1 | inconclusive: 3.16 µM [inhibitor, single point]
42 | O=S(=O)(NCc1ccc(Cl)cc1)NCc1ccccc1F | inactive
43 | O=C(CC1(O)C(=O)N(CCc2ccccc2)c2ccccc21)c1ccccn1 (centres undefined) | inactive
44 | CCn1ncc(/C=N\NC(=O)Cc2ccc([N+](=O)[O-])cc2)c1C | inconclusive: 0.631 µM [inhibitor, partial curve, poor fit]

3 compounds picked at random from those above, as already listed:
Row | Compound | Potency
36 | Cc1cccc(Cn2nnc3c(=O)[nH]c(C4CCCN(C(=O)c5ccc(C(C)(C)C)cc5)C4)nc32)c1 (centres undefined) | inconclusive: 11.2 µM [inhibitor, partial curve, poor fit]
41 | COC(=O)C1=C(O)CSC1=Nc1ccccc1 | inconclusive: 3.16 µM [inhibitor, single point]
34 | Cc1nc2cc(NS(=O)(=O)c3ccc(Br)cc3)ccc2n1C | inconclusive: 11.2 µM [inhibitor, single point]
